# Experiment: soluble on expression in E. coli; label from the status in PepcDB or PDB records
row,Sequence,soluble on expression in E. coli
1,MSLGLKNKIKGFIKERMPFVVRYVRSLKGAKNIYDEINHEIKEMLEAKKLHSLQEKALFNHDHQESVFLAIASLNNESFIERNKSIYKNSSLNYNYGGGGHLEDRVIHPTLTLPNPTHSGYFDYDKKSQNPKSPLNPWAFIRVKNEIVTLEESLFSMLPAIQRGVIGFNDCDDGSKEVILEFCKKFPSFIPISYPYEVMLKDCPSLWHQLYHYSNYTLSFIPKNEWVIKIDGDHVYDAKKLYESFYIPKSIKEVVMYSRINFVVQDFEVFVCNSGDFGFLDAWGDQWLFYNDCEPFEIWQHNDDIYEILKLKDKHHIKDKELMQWHFPLAKKRRNAIVDNDLIPLKEFKKHHADLIGTKIEESMLDEKRILEMYQKFNLAEREGHHHHHH,soluble
2,MSSTRFIASSLANVTSRRSVSLLVRRSQFSFAPQRGLISVIDKQQCRQITDYSAKDSRINSRKLRNHDGSNMDGASITAAALKSQGVEYMFGVVGFPVIEVGMAAQAHGIKYIGCRNEQAAAYAAQAMGYLTGKPVALLVVSGPGILHAIGGLANATVNCWPVVCIGGTADVDLENRGAFQEWSQQESVRNSCKHVSRPTSLHTIPAHIEKAVRCAMYGRPGAVYVDLPGNLVLTSTEEEISFPPQVPLPAPVSIPPIAEIEKAIDTLKSAKKPLVIVGKGAAWSERGATQVQQFLTKSKLPWLATPGGKGVASDLHPRFIGQARSLALREADTVFLIGARFNWILHFGLPPRFQKDVKVVQIDICPEEFHQNVKTEVPLLGDIGETLAELTPRLGDWTYDESTEWFKKLRENAEKNRAAVEKFVDDHSTPLNYYAAYQPIREFLANNDVIVINEGANTMDIGRTMMPSRLPKRRLDAGTFGTMGVGHGFSLAAALWARDHSPKTKVLVVQGDSAFGFSAMELETIARYNLPVVTVIINNSGIYRGLLPEDDKAIEGDRTLALPVLSLTAECRYEEMCKAFGGAGTVVRTVPEIKAALEKAFQKTDGPTVINALISTDSERKPQADHWLTRSKM,not soluble
3,MVAITTAASRLGVAPYNESRPVELRPDFSLDDAKMVIRAVYRQVLGNDYIMDSERLKGAESLLTNGSISVREFVRTVAKSELYKKKFLYNNFQTRVIELNYKHLLGRAPFSEDEVIFHLDLYENQGFDADIDSYIDSVEYQENFGENIVPYYRFNNQVGDRTVGFTRMFRLYRGYANSDRSQLERSSSRLATELGQNTVSAIVGPSGSNAGWAYRPSRAGNLEHHHHHH,soluble
4,RMKQLEDKVEELLSKNYHLENEVARLKKLVNSDGLTGLSNRRHFDEYLEMEWRRSLREQSQLSLLMIDVDYFKSYNDTFGHVAGDEALRQVAGAIREGCSRSSDLAARYGGEEFAMVLPGTSPGGARLLAEKVRRTVESLQISHDQPRPGSHLTVSIGVSTLVPGGGGQTFRVLIEMADQALYQAKNNGRNQVGLMEQPVPPAPAG,soluble
5,VSKGEELFTGVVPILVELDGDVNGHKFSVRGEGEGDATIGKLTLKFICTTGKLPVPWPTLVTTLGYGLQCFARYPDHMKQHDFFKSAMPEGYVQERTISFKDDGKYKTRAVVKFEGDTLVNRIELKGTDFKEDGNILGHKLEYNFNSHNVYITATRGTAAARPACKIPNDLKQKVMNHDKQKNGIKANFTVRHNVEDGSVQLADHYQQNTPIGDGPVLLPDNHYLSYQTVLSKDPNEKRDHMVLLEFVTAAGITLGMDELYK,soluble

# Reference: the DeepSol protein solubility set
